The values below come from the supplement of paper PMC11348887.

Counter-ions that a name gives are not always drawn. Some of the results follow. Small differences around the control level are noise.

The test relates to hPSC-derived cortical neurons (WA09). The test can be described thus: KCl-induced FOS+/EGR-1+ double-positive nuclei fraction z-score (KCl minus unstimulated); higher = stronger activity-induced IEG response. The note with it: 5 µM; treatment: days 7-14 after plating, readout day 21.
With `COc1ccc(S(=O)(=O)Nc2nc(-c3cccc([N+](=O)[O-])c3)cs2)cc1OC`, the “KCl-induced FOS+/EGR-1+ double-positive nuclei fraction z-score” value turned out to be 1.4.

For `CCN1CCN(Cc2ccc(Nc3ncc(F)c(-c4cc(F)c5nc(C)n(C(C)C)c5c4)n3)nc2)CC1`, the “KCl-induced FOS+/EGR-1+ double-positive nuclei fraction z-score” value is -0.633.

Consider `CC(N)C12CC3CC(CC(C3)C1)C2` (configuration not stated) [Rimantadine], for which the “KCl-induced FOS+/EGR-1+ double-positive nuclei fraction z-score” value worked out at 0.722.

`C[N+](C)(C)CCOC(=O)CCC(=O)OCC[N+](C)(C)C` [Succinylcholine Chloride Dihydrate]: the “KCl-induced FOS+/EGR-1+ double-positive nuclei fraction z-score” value was found to be 0.896.

`CO[C@H]1C[C@@H]2CC[C@@H](C)[C@@](O)(O2)C(=O)C(=O)N2CCCC[C@H]2C(=O)O[C@H]([C@H](C)C[C@@H]2CC[C@@H](OCCO)[C@H](OC)C2)CC(=O)[C@H](C)/C=C(\C)[C@@H](O)[C@@H](OC)C(=O)[C@H](C)C[C@H](C)/C=C/C=C/C=C/1C` [Everolimus (RAD001)]: the “KCl-induced FOS+/EGR-1+ double-positive nuclei fraction z-score” value was -0.449.

For the molecule `CC(=O)OCC(COC(C)=O)OC(C)=O` [Triacetin], the “KCl-induced FOS+/EGR-1+ double-positive nuclei fraction z-score” value came out at 0.73.

Consider `N=C(N)c1ccc(OCCCCCOc2ccc(C(=N)N)cc2)cc1` [Pentamidine], for which the “KCl-induced FOS+/EGR-1+ double-positive nuclei fraction z-score” value is -2.06.

Turning to `O=C(Cc1ccc(-c2ccc(OCCN3CCOCC3)cc2)cn1)NCc1ccccc1`, the “KCl-induced FOS+/EGR-1+ double-positive nuclei fraction z-score” value is -2.58.

As to `COc1ccc(C2CC(c3ccccc3)=NN2c2ccc(S(N)(=O)=O)cc2)cc1` (configuration not stated), the “KCl-induced FOS+/EGR-1+ double-positive nuclei fraction z-score” value is 1.36.

Consider `CN(C)c1ccc(O)c2c1C[C@H]1C[C@H]3[C@H](N(C)C)C(O)=C(C(N)=O)C(=O)[C@@]3(O)C(O)=C1C2=O` [Minocycline HCl], for which the “KCl-induced FOS+/EGR-1+ double-positive nuclei fraction z-score” value is 0.316.

On to `N[C@@H](Cc1c[nH]c2ccc(O)cc12)C(=O)O` [5-hydroxytryptophan (5-HTP)], for which the “KCl-induced FOS+/EGR-1+ double-positive nuclei fraction z-score” value is 0.554.

For the molecule `CC1=C(C(=O)Nc2cc3cn[nH]c3cc2F)C(c2ccc(C(F)(F)F)cc2)CC(=O)N1` (configuration not stated), the “KCl-induced FOS+/EGR-1+ double-positive nuclei fraction z-score” value is 0.229.
